Source: PubChem BioAssay AID493014 (National Center for Advancing Translational Sciences (NCATS), 2011)
The list shows a part of the results. Further columns of the screen follow, without active or inactive calls. Compounds called inactive in the main read-out are mostly missing here. Potencies come from curve fits of mixed quality, noted in brackets.

Experiment: qHTS Assay to Find Inhibitors of Chronic Active B-Cell Receptor Signaling
Settings: ABC-DLBCL IkBa-CBG/CBR reporter, luminescence ratio (green luciferase fused to IkBa over red control in TMD8 lymphoma cells), 4 h
Procedure, shortened: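 Concentration-response series (up to 46 uM) were applied to TMD8 dual-reporter cells for 4 h at 37C with doxycycline. Green/red ratio, after filter-overlap correction, defined %Activity; red signal alone was normalised to basal cells and zero luminescence.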

[1] = measured here: CBR red luminescence, cell number
[2] = measured here: IkBa-CBG green luminescence

CC(O)CNCCOc1ccccc1-c1ccccc1 (stereo unspecified)
AC50 [1]: 35.5 µM [falling, single point]

Cc1c(C2Nc3ccccc3NC3=C2C(=O)CC(C)(C)C3)cnn1C (stereo unspecified)
AC50 [1]: 3.66 µM [falling, full curve]

CCOc1ccc(N2C(=O)NC(Cc3c[nH]c4ccccc34)C2=O)cc1 (stereo unspecified)
AC50 [1]: 2.06 µM [falling, single point]

O=C(O)c1cc(N/N=C/c2ccc(N3CCOCC3)cc2)ccc1Cl
AC50 [1]: 17.8 µM [falling, partial curve, poor fit]

O=C(c1ccc([N+](=O)[O-])cc1)N1CCN(Cc2ccccc2[N+](=O)[O-])CC1
AC50 [1]: 11.2 µM [falling, partial curve]

Clc1ccc(N/N=C/c2cccs2)nn1
AC50 [1]: 14.1 µM [rising, partial curve, poor fit]

COc1ccccc1C(=O)N/N=C/c1ccc2c(c1)OCO2
AC50 [1]: 17.8 µM [falling, partial curve]

CCN(CC)CCCC(C)NC(=O)c1c(NC(=O)c2ccccc2)sc2c1CCCC2 (stereo unspecified)
AC50 [1]: 12.6 µM [falling, single point]

COc1ccc(Oc2ccc(/C=N/NC(=O)c3cccnc3)cc2[N+](=O)[O-])cc1
AC50 [1]: 12.6 µM [falling, single point]

CN(C)CCCN1C(=O)c2cccc3c([N+](=O)[O-])ccc(c23)C1=O
AC50 [1]: 6.51 µM [falling, full curve]
AC50 [2]: 23.1 µM [rising, partial curve]

CCc1cccc(C)c1NC(=O)N(C)C1CCCCC1
AC50 [1]: 35.5 µM [rising, single point]

COC(=O)c1cc2ccsc2n1CC(=O)N1CCCc2ccccc21
AC50 [1]: 35.5 µM [falling, single point]

Fc1cc(NC(=S)NCc2ccc(CNC(=S)Nc3ccc(Cl)c(F)c3)cc2)ccc1Cl
AC50 [1]: 35.5 µM [rising, single point]

O=C(O)CC1=C(Nc2ccccc2)C(=O)N(c2ccccc2)C1c1ccc(Cl)cc1 (stereo unspecified)
AC50 [1]: 12.6 µM [falling, partial curve]

N/C(=N\OC(=O)c1ccc(Cl)cc1[N+](=O)[O-])c1cccnc1
AC50 [1]: 0.794 µM [rising, full curve, poor fit]

Cc1ccc2nc(N3C(=O)C(O)=C(C(=O)c4cc5ccccc5o4)C3c3cccs3)sc2c1 (stereo unspecified)
AC50 [1]: 0.282 µM [falling, full curve]

Cc1ccc([N+](=O)[O-])cc1S(=O)(=O)Nc1ccc(-c2ccc(N3CCOCC3)nn2)cc1
AC50 [1]: 18.4 µM [falling, single point]

COc1ccc(C(CNC(=O)COc2c(C)cc(C)cc2C)N2CCOCC2)cc1 (stereo unspecified)
AC50 [1]: 0.651 µM [rising, full curve]

COc1cc(-c2ccc3oc(-c4cccc(C)c4)c(C#CC4(O)CCCCC4)c3c2)cc(OC)c1OC
AC50 [1]: 29.1 µM [rising, single point]

Cc1ccc(-n2c(SCC(=O)c3c(N)n(C)c(=O)n(C)c3=O)nc3sc4c(c3c2=O)CCCC4)c(C)c1
AC50 [1]: 25.9 µM [rising, single point]

CN(c1ccccc1)S(=O)(=O)c1ccc(C(=O)N2CCCC(C(F)(F)F)C2)cc1 (stereo unspecified)
AC50 [1]: 22.4 µM [falling, single point]

O=C(NC1CCCCC1)c1cccc(OCc2ccccc2)c1
AC50 [1]: 35.5 µM [falling, single point]

O=C(Nc1ccccc1C(=O)NCC1CCCO1)c1ccco1 (stereo unspecified)
AC50 [1]: 32.6 µM [rising, single point]

CC(C)Cc1nc(C(N)=O)c2[nH]c(=O)n(-c3ccc(F)cc3)c2n1
AC50 [1]: 16.4 µM [falling, partial curve, poor fit]

Nc1ccc2oc(C3CCCCC3)nc2c1
AC50 [1]: 1.41 µM [rising, partial curve, poor fit]

CCc1cc(-c2onc(C)c2-c2cscn2)c(O)cc1OC
AC50 [1]: 35.5 µM [falling, single point]
AC50 [2]: 3.55 µM [falling, single point]

Cc1ccc(-c2csc(NCCn3c(-c4ccncc4)nc4ccccc43)n2)cc1
AC50 [1]: 0.447 µM [falling, full curve, poor fit]

COc1ccc(/C=C/C(=O)O/N=C(\N)c2cccnc2)cc1OC
AC50 [1]: 4.47 µM [rising, partial curve, poor fit]

Cc1noc(C)c1C(=O)N1CCOCC1
AC50 [1]: 29.1 µM [falling, single point]

Cc1ccc(CNCC(O)(c2ccccc2)c2ccc(F)cc2)cc1 (stereo unspecified)
AC50 [1]: 7.08 µM [falling, partial curve, poor fit]

CCOC(=O)C1CCCN(CC(=O)Nc2c(C(=O)OC)[nH]c3ccccc23)C1 (stereo unspecified)
AC50 [1]: 6.31 µM [falling, single point]

O=C(O)c1cccc(Nc2nc(-c3ccc([N+](=O)[O-])cc3)nc3ccccc23)c1
AC50 [1]: 0.316 µM [rising, full curve, poor fit]

Cc1cc(C(=O)COC(=O)c2ccc(NC(=O)CC#N)cc2)c(C)n1C1CC1
AC50 [1]: 23.1 µM [falling, partial curve, poor fit]

Cc1cc(SCC(=O)c2cc3ccccc3o2)nc2ccccc12
AC50 [1]: 0.891 µM [falling, full curve]

CCOC(=O)c1c(C)[nH]c(C)c1C(=O)COC(=O)/C=C/c1ccco1
AC50 [1]: 14.6 µM [rising, partial curve, poor fit]

CCn1c(COc2c(C)cccc2C)nnc1SCC(=O)N1CCN(c2ccccc2)CC1
AC50 [1]: 35.5 µM [falling, single point]

N#CC(Nc1ccccc1)c1ccccc1OCc1ccccc1 (stereo unspecified)
AC50 [1]: 0.116 µM [rising, full curve, poor fit]

COc1cccc(/C=C/c2ccc3cccc(O)c3n2)c1OC
AC50 [1]: 15.8 µM [rising, partial curve]
AC50 [2]: 35.5 µM [falling, single point]

COc1ccc(-c2nn(-c3ccccc3)cc2/C=C2/SC(=S)N(CCCC(=O)O)C2=O)c(C)c1
AC50 [1]: 0.562 µM [falling, full curve, poor fit]

CCSc1nnc(NC(=O)c2cc(C)on2)s1
AC50 [1]: 29.1 µM [falling, single point]

CC(C)N(Cc1nc(-c2ccc(Cl)cc2)no1)C(=O)CCCN1C(=O)c2ccccc2C1=O
AC50 [1]: 35.5 µM [falling, single point]

O=C(Nc1cccnc1)Nc1ccccc1Cl
AC50 [1]: 20.6 µM [falling, partial curve, poor fit]

COc1cccc(/C=N/NC(=O)c2[nH]nc3c2CCc2ccccc2-3)c1
AC50 [2]: 20 µM [falling, single point]

CCN1CCN(C(=O)c2ccc(-c3nc4ccccc4s3)s2)CC1
AC50 [1]: 3.55 µM [rising, single point]

Cc1cc(C(=O)CN2C(=O)C(=O)N(C3CCCC3)C2=O)c(C)n1-c1ccc(F)cc1
AC50 [1]: 35.5 µM [falling, single point]

N/C(=N\OC(=O)c1ccc(Br)cc1)c1ccccc1
AC50 [1]: 35.5 µM [falling, single point]

CCN(CC(=O)Nc1ccc2c(c1)OC(F)(F)O2)Cc1nc2ccccc2c(=O)[nH]1
AC50 [1]: 0.92 µM [falling, full curve, poor fit]

CC(/C=C/c1ccccc1)=N\NC(=O)CNC(=O)c1ccccc1Cl
AC50 [1]: 29.1 µM [rising, single point]

COC(=O)c1sc(NC(=O)CSc2nnnn2-c2ccc(C)cc2C)nc1C
AC50 [1]: 5.62 µM [falling, full curve, poor fit]

CCCSC1=C(C#N)C(c2cc(OC)ccc2OC)CC(=O)N1 (stereo unspecified)
AC50 [1]: 0.731 µM [rising, full curve, poor fit]

COc1cccc(-c2ccc(NC(=O)C3CCCN(CCCn4nc(C)cc4C)C3)cc2)c1 (stereo unspecified)
AC50 [1]: 10 µM [falling, partial curve, poor fit]

COc1cccc(OCCN2CCN(c3ncnc4c3cnn4-c3ccccc3)CC2)c1
AC50 [1]: 6.31 µM [falling, single point]

Cc1cccc2cc(CN(CC(C)C)S(=O)(=O)c3ccccc3)c(=O)[nH]c12
AC50 [1]: 0.282 µM [falling, full curve]

O=S(=O)(N/N=C1\CC(c2ccccc2)Oc2ccccc21)c1ccccc1 (stereo unspecified)
AC50 [1]: 35.5 µM [falling, single point]

COC(=O)[C@@H]1CC[C@H](C)[C@@H](c2ccc(C)cc2)N1C(=O)c1ccc(/C=N/OC[C@@H](O)COCc2ccco2)cc1
AC50 [1]: 11.6 µM [falling, single point]
AC50 [2]: 29.1 µM [rising, single point]

CCOC(=O)c1sc(NC(=O)c2ccc3ncsc3c2)nc1C
AC50 [1]: 0.146 µM [falling, full curve]

O=C(c1ccc(Oc2ccccc2)cc1)c1nc2c(n1O)CCCC2
AC50 [1]: 9.2 µM [falling, partial curve, poor fit]

COc1ccc(C(CNC(=O)c2ccccc2C)N2CCCC2)cc1 (stereo unspecified)
AC50 [1]: 0.651 µM [falling, full curve, poor fit]

COc1ccc(C(=O)OCC(=O)NCC2CCCO2)cc1[N+](=O)[O-] (stereo unspecified)
AC50 [1]: 10 µM [rising, partial curve]

COc1cc(/C=C/C(=O)N[C@@H](Cc2c[nH]c3ccccc23)C(=O)O)ccc1O
AC50 [1]: 0.447 µM [rising, full curve, poor fit]

CCn1c(CSc2nc(C)cc(C)n2)nnc1SCC(=O)Nc1ccccc1
AC50 [1]: 1.46 µM [rising, full curve, poor fit]

COc1ccc(C2c3[nH]c4ccccc4c3CCN2C(=O)c2cc3ncccn3n2)c(F)c1 (stereo unspecified)
AC50 [1]: 25.1 µM [falling, single point]
